{"source": "ChEMBL document CHEMBL3612047", "about": "“Synthesis, antiproliferative activity and possible mechanism of action of novel 2-acetamidobenzamides bearing the 2-phenoxy functionality” (Bioorg Med Chem, 2015)", "test_system": "K562", "assay": "Growth inhibition of human K562 cells incubated for 24 hrs by trypan blue dye exclusion assay", "assay_type": "functional, cell-based", "settings": "K562, 24 h", "method_in_brief": "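K562 cells, about 2 × 10⁵ cells/mL, precultured 24 h, then exposed 24 h to a range of compound concentrations. Viable cells counted by hemocytometer with trypan blue exclusion to derive IC₅₀.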", "data": [{"smiles": "COc1cc2c(c(OC)c1OC)-c1ccc(OC)c(=O)cc1[C@@H](NC(C)=O)CC2", "note": "[COLCHICINE]", "values": [{"measurement": "IC50", "value": 20, "unit": "nM"}]}]}
